Source: article PMC12040169 (PLOS Biology, 2025)
The other results are listed elsewhere or left out.

These compounds were tested on T1, CTL2-GFP (C. trachomatis L2/434/Bu, GFP-expressing). Conditions: bulk GFP, single well; 28.5 h, 10 µM; inhibitor.
T1 construct: L2/434/Bu, GFP-expressing
Set-up: species or system HeLa; Intracellular C. trachomatis growth in HeLa cells, bulk GFP fluorescence relative to DMSO

| Structure (SMILES) | % of control remaining [%] |
| --- | --- |
| CCOC(=O)[C@H]1CN(C(=O)C(C)(C)NC(=O)OC(C)(C)C)C[C@@H]1c1cc2cc(C)ccc2o1 [CBK001599] | 94.0871 |
| Cc1ccc(S(=O)(=O)N(CC(=O)O)c2ccccc2C)cc1 [CBK262423] | 100 |
| Cc1ccc(C2=NN(C(=O)CCC(=O)O)C(c3ccc4nccnc4c3)C2)cc1 (centres unmarked) [CBK287802] | 121.893 |
| O=C(NCCN1CCCC1)C1CCCN(c2nc3c(-c4ccccc4)csc3c(=O)[nH]2)C1 (centres unmarked) [CBK215507] | 120.655 |
| COc1cc(CO)c(-c2c[nH][nH]c2=O)cc1OC [CBK009476] | 105.545 |
| CC(=O)Nc1ccc(N2C(=O)CSC2c2ccccc2[N+](=O)[O-])cc1 (centres unmarked) [CBK294443] | 133.557 |
| CCCC/C=C/c1cncc(NC2CCC(O)CC2)n1 (centres unmarked) [CBK037840] | 117.658 |
| COc1ccccc1C(=O)N1CCC(c2nc(C)n3ccccc23)C1 (centres unmarked) [CBK282221] | 119.487 |
| COc1ccc(N(CC(=O)Nc2cccc3cccnc23)S(=O)(=O)c2ccc(C)cc2)cc1 [CBK263965] | 128.578 |
| O=C1CCC(=O)N1CCOc1nccnc1OC1CCN(Cc2ccc(Cl)cc2)CC1 [CBK084338] | 101.74 |
| Cc1ccc(Cn2nnc3c(O)nc(C4CCN(C(=O)CC(C)(C)C)CC4)nc32)cc1 [CBK293970] | 111.546 |
| O=C(c1cc(F)c(F)cc1F)N1CCC2(CCCN(C/C=C/c3ccccc3)C2)C1 (centres unmarked) [CBK132001] | 105.742 |
| O=C(CCSc1ccccc1)Nc1ccccc1C(=O)N1CCCCC1 [CBK269545] | 174.044 |
| Cc1ccc(-c2nc(C)sc2CC(=O)N(C)CCN(C)C)cc1 [CBK282175] | 121.663 |
| Cc1nc(-c2cc3c(s2)CCN(Cc2ccc(CO)o2)C3)cs1 [CBK306411] | 119.3 |
| Cc1nc(C(Cc2ccsc2)NC(=O)c2cc[nH]n2)sc1C (centres unmarked) [CBK284776] | 146.791 |
| CCC(CO)Nc1nccnc1-c1cccs1 (centres unmarked) [CBK036800] | 182.847 |
| CC(=O)Nc1cccc(-n2c(C)nnc2SCC2CCCCC2)c1 [CBK304590] | 95.9421 |
| CCOc1cc(C2Nc3ccccc3NC3=C2C(=O)C(C(=O)OC)C(C)C3)ccc1OC(C)C (centres unmarked) [CBK268456] | 141.948 |
| Cc1cc(C)nc(N2CCCC(O)(c3nc(C)c(CCOc4ccccc4)s3)CC2)n1 (centres unmarked) [CBK285924] | 93.2301 |
| CC(C)(C)OC(=O)N1CCC(c2nc3ccccc3cc2N)CC1 [CBK285038] | 164.222 |
| NC(=S)NC(=O)CN1C(=O)c2ccccc2C1=O [CBK264111] | 122.081 |
| COc1ccc(-c2cnc(N)c(NCC(C)C)n2)c(OC)c1OC [CBK063855] | 133.009 |
| Cc1cccc(CCNC(=O)C2CN(C(=O)C3CCN(C)CC3)C2)c1 [CBK281967] | 158.313 |
| COc1ccccc1CC(C)NC(=O)CCn1ccc2ccncc21 (centres unmarked) [CBK285175] | 125.749 |
| COC(C)(C)C(=O)N1CCC2(C/C=C/Cc3ccccc3OCC(=O)NCCNC2=O)CC1 [CBK292001] | 121.702 |
| COc1cc2c(cc1OC)CN(CC1CCCCC1)CC2 [CBK138321] | 87.9718 |

| Structure (SMILES) | % of control remaining [%] |
| --- | --- |
| COc1cccc(C(NC(=O)C2CCN(Cc3cccs3)CC2)c2cnccn2)c1 (centres unmarked) [CBK148572] | 108.768 |
| OC(Cn1nc(-c2ccccc2)cc1-c1ccccc1)Cn1c2ccc(Cl)cc2c2cc(Cl)ccc21 (centres unmarked) [CBK261418] | 92.7913 |
| COCCn1cnnc1C(C)NC(=O)c1nc2ccccc2[nH]1 (centres unmarked) [CBK307366] | 113.061 |
| C=C(C)CNc1ccccc1C(=O)OC [CBK003656C] | 127.923 |
| CC(C)[C@H](NC(=O)C1CC(=O)N(c2ccc(F)cc2)C1)C(=O)N1CCCC1C(=O)O (some centres unmarked) [CBK286723] | 117.35 |
| O=C(O)C1CC=CCC1C(=O)N1CCN(C(=O)c2ccco2)CC1 (centres unmarked) [CBK299784] | 159.461 |
| Cc1sc2nc(SCc3nc(-c4ccccc4)no3)n(-c3ccccc3)c(=O)c2c1C [CBK266492] | 117.033 |
| O=C(O)c1ccc(NC(=O)c2cn(-c3ccccc3)nc2-c2cc3ccccc3o2)cc1 [CBK266587C] | 162.53 |
| C[C@@H]1CN[C@@H](C)CN1Cc1cc(NS(=O)(=O)c2ccccc2Cl)cc2ccoc12 [CBK107211T] | 131.118 |
| O=S(=O)(c1ccc(Cl)s1)N1CCN(Cc2ccc3c(c2)OCO3)CC1 [CBK270324] | 122.659 |
| Cc1nncn1-c1ccc(Cl)cc1C(=O)c1ccccc1Cl [CBK012372] | 97.2881 |
| O=C(CC1CC1)NCc1ccc(-c2csnn2)cc1 [CBK149287] | 120.928 |
| CCOC(=O)c1nc2c(n1C)[C@H]1[C@H](O)[C@H](O)C[C@H]1C1(CCC1)N2 [CBK303241] | 139.605 |
| O=C1COc2ccccc2C/C=C/CC2(CCN(Cc3cncnc3)CC2)CN1 [CBK292130] | 74.7238 |
| Cc1nc(-c2cc3c(s2)CCN(CC(O)Cn2cccn2)C3)cs1 (centres unmarked) [CBK304458] | 124.264 |
| Cc1cc(C)c2c(n1)nn1c(C)c(CCC(=O)O)c(C)nc21 [CBK265892] | 113.429 |
| O=C(NC1CC2(CCCCC2)Oc2ccccc21)C1CCOC1 (centres unmarked) [CBK283760] | 108.715 |
| COC(=O)[C@@H]1Cc2ncn(Cc3ccc(Cl)cc3)c2CN1C(=O)c1ccc(OC)cc1 [CBK288983] | 126.39 |
| COc1cccc(C(=O)N2CCC[C@@H](N)[C@@H]2c2ccccc2F)c1 [CBK283457] | 110.87 |
| CC1(C)CC(=O)C=C(C(=O)NCc2ccc(OC3CCNCC3)cc2)O1 [CBK038948T] | 114.286 |
| CC(C)(C)OC(=O)NCCNCc1cc(F)cc(F)c1 [CBK056698] | 159.274 |
| COc1cc(OC)cc(-c2c(C)ncnc2OC)c1 [CBK306765] | 123.417 |
| CNS(=O)(=O)c1ccc(C(C)NC(=O)N2CCN3CCC2CC3)cc1 (centres unmarked) [CBK304765] | 149.174 |
| O=C(CN1CCC(c2ccc(F)cc2)CC1)N1CCCC1 [CBK283502] | 146.801 |
| Cn1ncc2c1CCCN(C(=O)COc1ccc(F)cc1F)C2 [CBK285229] | 135.248 |
| Cc1ccc2nc(C(=O)NCCSc3nccn3C)cn2c1 [CBK281397] | 121.054 |
| CC(C)c1ccc(-c2cncc(NCc3cccc(Cl)c3)n2)cc1 [CBK065347] | 151.917 |

| Structure (SMILES) | % of control remaining [%] |
| --- | --- |
| CCn1c(SCC(=O)N2CCN(c3ccccc3)CC2)nnc1-c1ccc(N)cc1 [CBK265786] | 95.5367 |
| Cc1ccncc1C(=O)Nc1c(C)noc1C [CBK200393] | 102.312 |
| FC(F)(F)c1ccnc(OCCOc2ccc(Cl)cc2)n1 [CBK115838] | 163.956 |
| O=C(CCc1ccccc1)N1CCC(c2cccc(Cc3cccc(F)c3)n2)CC1 [CBK286219] | 120.537 |
| CCn1cc(S(=O)(=O)NCc2ccccc2OC)cn1 [CBK270304] | 113.903 |
| Cc1cc(C)nc(SCCN2CCOCC2)n1 [CBK261769C] | 113.726 |
| O=C(CSc1nccc2ccccc12)NC1CCCOC1 (centres unmarked) [CBK282677] | 125.911 |
| Cc1nn(C)c(Cl)c1S(=O)(=O)Nc1ccc2cc(Br)cnc2n1 [CBK073892] | 114.423 |
| CC1CCc2c(sc3ncnc(NCCc4nc5ccccc5[nH]4)c23)C1 (centres unmarked) [CBK268809] | 111.038 |
| S=C(NCCC(c1ccccc1)c1ccccc1)NC1CCCCC1 [CBK264007] | 102.671 |
| O=C(NCCN1CCCCC1)C1CC(=O)N(Cc2ccccc2)C1 (centres unmarked) [CBK305150] | 161.478 |
| Cc1cc(C[C@@H]2COC[C@H]2NCc2ccc(C(C)C)cc2)on1 [CBK284884] | 120.594 |
| Cc1cc(C)n(CC(=O)NCC2CCCO2)c(=O)c1C#N (centres unmarked) [CBK269926] | 147.659 |
| Nc1cccc(-c2cc(Nc3ccc(CCO)cc3)ncn2)c1 [CBK090766] | 125.758 |
| COc1ncccc1C(=O)N1CCc2ccccc2C1 [CBK200336] | 107.545 |
| Cc1cc(F)ccc1NC(=O)c1n[nH]cc1Cl [CBK288020] | 102.792 |
| Cc1cccc(Nc2ncnc3ccccc23)c1 [CBK072827] | 117.583 |
| Cn1c(=S)[nH]c2c(-c3ccccc3)c[nH]c2c1=O [CBK288488] | 88.655 |
| COC(=O)CCn1c(=O)c2c(nc3oc(C(C)(C)C)cn32)n(C)c1=O [CBK306034] | 130.728 |
| COc1cc2cc3c(N)c(C(=O)NCc4cccs4)sc3nc2cc1OC [CBK120215] | 100 |
| CCCNC(=O)c1sc(Nc2ccc(Cl)cn2)nc1C [CBK287850] | 123.466 |
| Cc1ccc(-c2cc(C(=O)O)c3cc4c(C(=O)O)cc(-c5ccc(C)o5)nc4cc3n2)o1 [CBK264342] | 131.142 |
| COc1ccc(-c2cn3cccnc3n2)cc1NC(=O)c1ccccc1 [CBK287296] | 100 |
| C/C(=N\NC(=O)C(C)Sc1ncccn1)C(C)(C)C (centres unmarked) [CBK020243] | 135.738 |
| O=C(Cc1ccn[nH]1)N1CC(O)CC1c1cc(F)ccc1F (centres unmarked) [CBK304872] | 98.6095 |
| COc1ccc(CCNc2ncnc3c2cnn3-c2ccc(C)cc2C)cc1OC [CBK294448] | 145.303 |

Among those listed so far, 6 have a tert-butyl group:

| Structure (SMILES) | % of control remaining [%] |
| --- | --- |
| CCOC(=O)[C@H]1CN(C(=O)C(C)(C)NC(=O)OC(C)(C)C)C[C@@H]1c1cc2cc(C)ccc2o1 [CBK001599] | 94.0871 |
| Cc1ccc(Cn2nnc3c(O)nc(C4CCN(C(=O)CC(C)(C)C)CC4)nc32)cc1 [CBK293970] | 111.546 |
| CC(C)(C)OC(=O)N1CCC(c2nc3ccccc3cc2N)CC1 [CBK285038] | 164.222 |
| CC(C)(C)OC(=O)NCCNCc1cc(F)cc(F)c1 [CBK056698] | 159.274 |
| COC(=O)CCn1c(=O)c2c(nc3oc(C(C)(C)C)cn32)n(C)c1=O [CBK306034] | 130.728 |
| C/C(=N\NC(=O)C(C)Sc1ncccn1)C(C)(C)C (centres unmarked) [CBK020243] | 135.738 |
